PubChem BioAssay AID686938 | Drosophila RNAi Screening Center, 2013
The deposit covers about 23,000 reagents; shown is a random part of those with a known target gene and a result. In the full data, 75 (0.33%) are marked active. 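Raw plate signals without normalisation; calls rest on plate z-scores that were not deposited; ratio present for only 364 wells.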 Entries without a mark were called inactive. The numbers tell different reagents against one gene apart. A plus sign joins genes that one reagent is predicted to hit. Not given: the dose of the treatment.

Screen: 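Fly genes required for calcium entry once internal stores are emptied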 (primary screen)
Cell system: Drosophila S2R+ cells
Reagents: long dsRNA against Drosophila genes, about 0.25 µg dsRNA per well, roughly 10,000 cells
Time to read-out: 5 days of knock-down before the calcium assay
Treatment: thapsigargin (SERCA pump blocker) to empty calcium stores; entry signal taken 4 min after adding it
Measured: 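Duplicate raw fluo-4 intensities per well from a plate reader, at rest and four minutes after thapsigargin emptied calcium stores; entry-to-rest ratio filled for only some wells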
Direction: calcium entry signal: higher = stronger calcium signal after store depletion; entry to resting ratio: higher = more calcium entry relative to resting level; resting calcium signal: higher = higher resting calcium signal
Units: calcium entry signal in fluorescence units; resting calcium signal in fluorescence units
Hit rule: 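Hit if the duplicate-averaged plate z-score for entry over resting signal is under −3; wells with weak total dye signal (Fmax z < −2) or more than 5 off-targets removed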
Calls: active = strongly reduced calcium entry; inactive = no strong reduction

gene | dsRNA no. | calcium entry signal, replicate 1 | calcium entry signal, replicate 2 | entry to resting ratio | resting calcium signal, replicate 1 | resting calcium signal, replicate 2
CG7289 | 1 | 4.40e7 | – | – | 2.56e7 | –
CR33013 | 1 | 2.67e7 | 4.52e7 | – | 1.37e7 | 1.86e7
BthD | 1 | 4.42e7 | 4.65e7 | – | 1.96e7 | 2.23e7
nAChRalpha1 | 1 | 3.93e7 | 3.25e7 | – | 1.94e7 | 1.77e7
nAChRalpha1 | 2 | 4.00e7 | 4.12e7 | – | 1.87e7 | 2.18e7
nAChRalpha1 | 3 | 4.09e7 | 4.16e7 | – | 1.83e7 | 1.85e7
nAChRalpha1 | 4 | 3.86e7 | 4.84e7 | – | 2.10e7 | 1.83e7
Spg7 | 1 | 3.80e7 | 5.06e7 | 2 | 1.89e7 | 2.14e7
Sec31 | 1 | 4.84e7 | 4.42e7 | – | 1.93e7 | 1.91e7
SCCRO3 | 1 | 2.39e7 | 3.02e7 | – | 1.28e7 | 1.36e7
Sap-r | 1 | 4.78e7 | 4.69e7 | – | 2.02e7 | 2.30e7
Sap-r | 2 | 3.41e7 | 5.30e7 | – | 1.73e7 | 3.00e7
CG15172 | 1 | 5.52e7 | 5.03e7 | – | 2.80e7 | 2.11e7
Urod | 1 | 3.98e7 | 3.82e7 | – | 1.76e7 | 1.58e7
CG12219 | 1 | 2.09e7 | 3.86e7 | – | 1.12e7 | 1.67e7
TotB | 1 | 3.95e7 | 4.72e7 | – | 6.41e7 | 2.13e7
CG6908 | 1 | 4.05e7 | 3.83e7 | – | 2.06e7 | 1.97e7
hpRNA:CR32207 | 1 | 3.79e7 | 3.17e7 | – | 1.87e7 | 1.48e7
mRpS33 | 1 | 3.89e7 | 6.42e7 | – | 1.77e7 | 6.39e7
CG12934 | 1 | 4.04e7 | 3.78e7 | – | 2.15e7 | 1.93e7
Med | 1 | 4.05e7 | 4.39e7 | 2.2 | 1.88e7 | 2.05e7
Sym | 1 | 2.21e7 | 2.46e7 | – | 1.16e7 | 1.33e7
HisRS | 1 | 3.10e7 | 2.72e7 | – | 1.70e7 | 1.42e7
ccb | 1 | 3.64e7 | 4.04e7 | – | 2.09e7 | 1.85e7
CG4570 | 1 | 4.40e7 | 3.46e7 | – | 2.18e7 | 1.80e7
VAChT + ChAT | 1 | 3.45e7 | 3.38e7 | – | 1.90e7 | 1.57e7

Records above whose target name begins with N or n:
gene | dsRNA no. | calcium entry signal, replicate 1 | calcium entry signal, replicate 2 | entry to resting ratio | resting calcium signal, replicate 1 | resting calcium signal, replicate 2
nAChRalpha1 | 1 | 3.93e7 | 3.25e7 | – | 1.94e7 | 1.77e7
nAChRalpha1 | 2 | 4.00e7 | 4.12e7 | – | 1.87e7 | 2.18e7
nAChRalpha1 | 3 | 4.09e7 | 4.16e7 | – | 1.83e7 | 1.85e7
nAChRalpha1 | 4 | 3.86e7 | 4.84e7 | – | 2.10e7 | 1.83e7

Further records follow:
gene | dsRNA no. | calcium entry signal, replicate 1 | calcium entry signal, replicate 2 | entry to resting ratio | resting calcium signal, replicate 1 | resting calcium signal, replicate 2
Acbp4 | 1 | 1.96e7 | 5.74e7 | – | 1.00e7 | 2.21e7
wgn | 1 | 3.72e7 | 3.77e7 | – | 1.70e7 | 1.55e7
CG14440 | 1 | 3.36e7 | 4.94e7 | – | 1.72e7 | 2.37e7
CG14440 | 2 | 4.69e7 | 3.02e7 | – | 2.30e7 | 1.45e7
CG14440 | 3 | 4.80e7 | 3.77e7 | – | 2.39e7 | 1.71e7
Pldn | 1 | 1.90e7 | 2.44e7 | – | 1.11e7 | 1.15e7
mEFG1 | 1 | 3.29e7 | 3.39e7 | – | 1.67e7 | 1.67e7
Uck | 1 | 3.88e7 | 2.99e7 | – | 1.56e7 | 1.64e7
Uck | 2 | 2.98e7 | 4.27e7 | – | 1.80e7 | 1.86e7
CG8814 | 1 | 4.25e7 | – | – | 2.31e7 | –
Vm26Ac | 1 | 3.43e7 | 3.91e7 | – | 1.72e7 | 1.71e7
metro | 1 | 2.44e7 | 2.51e7 | – | 1.11e7 | 1.26e7
metro | 2 | 1.65e7 | 3.09e7 | – | 8.84e6 | 1.35e7
BEAF-32 | 1 | 4.06e7 | 4.80e7 | – | 1.75e7 | 2.22e7
mRpL50 | 1 | 5.45e7 | 3.46e7 | – | 3.61e7 | 1.73e7
CG15916 | 1 | 3.72e7 | 3.45e7 | – | 1.83e7 | 1.55e7
retm | 1 | 5.33e7 | – | – | 2.69e7 | –
CG16888 | 1 | 4.26e7 | 2.49e7 | – | 1.90e7 | 1.22e7
Prosbeta6 | 1 | 1.68e7 | 1.34e7 | – | 1.48e7 | 8.74e6
CG12911 | 1 | 3.11e7 | 3.08e7 | – | 1.57e7 | 1.41e7
hts | 1 | 2.16e7 | 4.77e7 | – | 1.05e7 | 2.14e7
Mur11Da | 1 | 4.68e7 | 3.16e7 | – | 2.04e7 | 1.50e7
TppII | 1 | 3.51e7 | 3.73e7 | – | 1.66e7 | 1.69e7
Regnase-1 | 1 | 3.83e7 | 3.00e7 | – | 1.80e7 | 1.38e7
CG14362 | 1 | 3.31e7 | 4.67e7 | – | 1.63e7 | 7.77e7
Vsx2 | 1 | 2.85e7 | 3.06e7 | – | 1.69e7 | 1.79e7
Vsx2 | 2 | 2.49e7 | 3.47e7 | – | 1.29e7 | 1.68e7
Vsx2 | 3 | 2.51e7 | 4.77e7 | – | 1.24e7 | 2.28e7
Vsx2 | 4 | 2.53e7 | 5.09e7 | – | 1.31e7 | 2.72e7
Vsx2 | 5 | 5.71e7 | 2.88e7 | – | 2.85e7 | 1.33e7
Vsx2 | 6 | 4.91e7 | 4.68e7 | – | 2.35e7 | 1.97e7
Gadd45 | 1 | 4.52e7 | 3.60e7 | – | 1.94e7 | 1.75e7
